The values are deposited in ChEMBL (CHEMBL3988442, “University of Dundee, Small-Polar-MMV Screening Library” (2021)).

Protein sequences, listed by entry. Tags and fused reporters are not part of them. Residues count along the entry.
UniProt I6X8D2, whole entry: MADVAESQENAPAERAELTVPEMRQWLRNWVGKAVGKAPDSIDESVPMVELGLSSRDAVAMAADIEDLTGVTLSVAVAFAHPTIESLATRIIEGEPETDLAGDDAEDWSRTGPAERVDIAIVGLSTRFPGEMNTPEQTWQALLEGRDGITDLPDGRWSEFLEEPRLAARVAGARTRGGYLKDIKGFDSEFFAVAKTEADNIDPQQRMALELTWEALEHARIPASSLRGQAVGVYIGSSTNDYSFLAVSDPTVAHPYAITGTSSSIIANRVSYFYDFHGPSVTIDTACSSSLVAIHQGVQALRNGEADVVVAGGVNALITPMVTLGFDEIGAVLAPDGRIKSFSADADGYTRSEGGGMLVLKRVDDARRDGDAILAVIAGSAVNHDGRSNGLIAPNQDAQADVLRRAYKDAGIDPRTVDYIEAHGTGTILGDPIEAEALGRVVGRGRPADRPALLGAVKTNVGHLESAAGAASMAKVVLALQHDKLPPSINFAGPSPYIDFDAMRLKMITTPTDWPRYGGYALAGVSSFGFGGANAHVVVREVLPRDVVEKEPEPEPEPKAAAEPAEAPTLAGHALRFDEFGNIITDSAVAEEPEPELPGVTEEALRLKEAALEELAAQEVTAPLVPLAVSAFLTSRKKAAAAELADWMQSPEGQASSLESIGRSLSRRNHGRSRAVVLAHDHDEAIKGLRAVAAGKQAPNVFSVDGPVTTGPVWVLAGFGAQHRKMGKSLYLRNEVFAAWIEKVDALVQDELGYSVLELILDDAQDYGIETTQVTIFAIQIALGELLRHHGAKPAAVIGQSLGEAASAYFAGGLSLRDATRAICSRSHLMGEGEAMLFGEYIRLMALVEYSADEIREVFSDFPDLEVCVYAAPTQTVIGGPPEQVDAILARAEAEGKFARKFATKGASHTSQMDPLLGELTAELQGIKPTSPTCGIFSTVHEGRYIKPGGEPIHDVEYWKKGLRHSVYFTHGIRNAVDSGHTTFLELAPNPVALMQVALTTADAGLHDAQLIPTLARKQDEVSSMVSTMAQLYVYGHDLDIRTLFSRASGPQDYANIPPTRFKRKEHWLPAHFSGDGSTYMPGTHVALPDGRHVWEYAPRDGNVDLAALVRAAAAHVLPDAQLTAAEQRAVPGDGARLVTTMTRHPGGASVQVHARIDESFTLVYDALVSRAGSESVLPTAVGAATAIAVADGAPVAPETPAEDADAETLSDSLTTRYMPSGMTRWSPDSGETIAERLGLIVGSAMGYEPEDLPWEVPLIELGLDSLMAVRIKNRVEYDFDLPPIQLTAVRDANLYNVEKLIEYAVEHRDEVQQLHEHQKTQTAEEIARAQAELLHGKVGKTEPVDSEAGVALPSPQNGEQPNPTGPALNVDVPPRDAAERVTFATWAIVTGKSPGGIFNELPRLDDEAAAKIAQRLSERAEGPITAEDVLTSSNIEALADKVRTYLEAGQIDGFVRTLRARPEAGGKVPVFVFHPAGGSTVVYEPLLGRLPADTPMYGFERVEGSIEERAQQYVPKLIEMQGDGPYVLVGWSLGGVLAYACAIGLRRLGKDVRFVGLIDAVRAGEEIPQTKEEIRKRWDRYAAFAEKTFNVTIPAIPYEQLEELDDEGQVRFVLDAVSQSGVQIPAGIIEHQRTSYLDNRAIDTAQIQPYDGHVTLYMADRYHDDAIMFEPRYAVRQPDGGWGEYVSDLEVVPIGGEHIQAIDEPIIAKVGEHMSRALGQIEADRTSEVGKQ
UniProt Q4DA54, 1-478: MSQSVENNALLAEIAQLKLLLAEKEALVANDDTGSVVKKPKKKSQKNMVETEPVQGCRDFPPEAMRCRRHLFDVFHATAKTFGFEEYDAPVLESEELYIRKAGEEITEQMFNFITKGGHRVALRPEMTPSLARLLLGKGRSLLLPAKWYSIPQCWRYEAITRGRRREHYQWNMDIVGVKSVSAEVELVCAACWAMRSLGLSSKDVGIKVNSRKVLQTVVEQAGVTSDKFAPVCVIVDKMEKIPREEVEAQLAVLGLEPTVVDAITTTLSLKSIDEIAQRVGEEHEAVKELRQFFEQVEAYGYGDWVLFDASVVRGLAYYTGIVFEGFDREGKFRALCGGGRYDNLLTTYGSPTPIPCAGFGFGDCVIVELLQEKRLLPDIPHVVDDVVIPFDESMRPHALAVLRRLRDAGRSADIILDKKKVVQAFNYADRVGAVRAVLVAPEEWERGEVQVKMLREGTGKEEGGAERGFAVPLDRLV
UniProt P9WFT3, whole entry: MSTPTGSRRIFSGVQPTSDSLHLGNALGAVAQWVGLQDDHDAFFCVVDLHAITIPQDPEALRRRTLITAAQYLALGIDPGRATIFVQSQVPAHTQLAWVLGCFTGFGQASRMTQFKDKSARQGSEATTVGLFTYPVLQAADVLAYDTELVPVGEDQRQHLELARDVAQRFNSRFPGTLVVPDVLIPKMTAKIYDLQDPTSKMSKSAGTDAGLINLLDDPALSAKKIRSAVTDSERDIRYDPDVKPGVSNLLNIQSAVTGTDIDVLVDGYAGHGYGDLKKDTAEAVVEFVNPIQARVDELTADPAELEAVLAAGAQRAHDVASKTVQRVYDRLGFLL
UniProt P9WPC5, whole entry: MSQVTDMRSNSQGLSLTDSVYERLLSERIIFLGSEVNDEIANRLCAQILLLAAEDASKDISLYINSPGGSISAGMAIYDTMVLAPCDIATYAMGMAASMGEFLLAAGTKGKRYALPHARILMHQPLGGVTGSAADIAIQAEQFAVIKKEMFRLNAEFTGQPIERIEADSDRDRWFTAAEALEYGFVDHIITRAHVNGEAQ
UniProt P9WPC3, whole entry partner: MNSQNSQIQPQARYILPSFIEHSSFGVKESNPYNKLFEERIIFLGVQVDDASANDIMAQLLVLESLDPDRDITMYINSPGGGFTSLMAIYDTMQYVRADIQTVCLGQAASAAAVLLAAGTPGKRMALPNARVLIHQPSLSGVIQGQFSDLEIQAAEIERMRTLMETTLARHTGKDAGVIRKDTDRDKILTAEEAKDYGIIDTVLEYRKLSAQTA

Pks13 thioesterase: 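Polyketide synthase Pks13, Mycobacterium tuberculosis (UniProt I6X8D2). Enzyme assay of the thioesterase domain of polyketide synthase 13; the read-out is not stated. Concentration: 30 µM. The record gives no direction; the compounds picked for IC50 retests had high values, so higher reads as stronger inhibition. Size under these conditions: about 67,000 compounds, about 300 of them at 50% or above in at least one test.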
TcHisRS: 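Enzyme assay of histidyl-tRNA synthetase; the read-out is not stated. Target: Histidine-tRNA ligase, Trypanosoma cruzi CL Brener (UniProt Q4DA54). Tested at 30 µM. The record gives no direction; compounds that gave an IC50 in retests scored well above the rest, so higher reads as stronger inhibition. About 69,000 compounds were tested under these conditions; 0.045% (about 31) showed 50% or more at least once.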
MtTrpRS: 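Enzyme assay of tryptophanyl-tRNA synthetase; the read-out is not stated. Target: Tryptophan-tRNA ligase, Mycobacterium tuberculosis (UniProt P9WFT3). Compounds at 10 µM. Direction is not recorded; retested compounds ran higher, which suggests that high means inhibition. About 65,000 compounds were tested under these conditions; 0.098% (about 64) showed 50% or more at least once.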
ClpP1P2: 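Protease assay of ClpP1P2, read by the AMC dye that it sets free. Target: ClpP1P2, Mycobacterium tuberculosis (UniProt P9WPC5 and UniProt P9WPC3). Compounds at 50 µM. Higher reads as stronger inhibition, judged from the few compounds that gave an IC50. Most other retested compounds had strongly negative values. Size under these conditions: about 69,000 compounds, about 10 of them at 50% or above in at least one test.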

Each number is a percent effect as filed. The record does not define 0% and 100%; most values in the screen are far below 50% and negative numbers occur (in some assays of this library far below -100). Compounds were drawn at random from those tested, without regard to their results.

With Cn1cc(CN2CCc3onc(COCC4CC4)c3C2)cn1 the screen gave Pks13 thioesterase: 3.469%; TcHisRS: 1.22%; MtTrpRS: -3.596%; ClpP1P2: -2.171%.
With Nc1nc(CCCNC(=O)c2ccccc2C2CCNC2)cs1 (stereo not shown) the screen gave Pks13 thioesterase: -13.35%; TcHisRS: 16.36%; MtTrpRS: 3.704%; ClpP1P2: 3.457%.
With COc1cccc(OC)c1C(=O)N1CCN(c2ccccc2F)CC1 the screen gave Pks13 thioesterase: 7.936%; TcHisRS: 3.226%; MtTrpRS: -3.417%; ClpP1P2: 15.87%.
With COC[C@@]12CCO[C@@H]1CCN(C(=O)Cc1ccccc1C)C2 the screen gave Pks13 thioesterase: -18.04%; TcHisRS: 0%; MtTrpRS: 0.1501%; ClpP1P2: -14.03%.
With COc1cc(C)nc(N2CCN(C(=O)CN(C)C(C)C)CC2)n1 the screen gave Pks13 thioesterase: -45.31%; TcHisRS: 1.176%; MtTrpRS: 18.72%; ClpP1P2: 1.847%.
With Cc1cc(S(=O)(=O)Nc2cccc(-n3cccc3)c2)sc1C(=O)O the screen gave Pks13 thioesterase: 73.98%; TcHisRS: 0.8475%; MtTrpRS: 7.544%; ClpP1P2: 20.35%.
With Cc1c[nH]nc1C1CN(c2ncccn2)CCO1 (stereo not shown) the screen gave Pks13 thioesterase: -0.05776%; TcHisRS: 4.215%; MtTrpRS: -2.083%; ClpP1P2: -5.225%.
With N#CC1(NC(=O)CN2CCc3c(ncn3C3CC3)C2)CCCC1 the screen gave Pks13 thioesterase: -1.811%; TcHisRS: 8.642%; MtTrpRS: -0.9046%; ClpP1P2: 5.117%.
With CN(Cc1cnn(C)c1)C(=O)C(c1ccccc1)N1CCSCC1 (stereo not shown) the screen gave Pks13 thioesterase: -10.79%; TcHisRS: 10%; MtTrpRS: -2.245%; ClpP1P2: -2.282%.
With CN(C)[C@@H]1CCN(S(=O)(=O)c2cn(C)cn2)[C@H]1Cc1cccnc1 the screen gave Pks13 thioesterase: -27.3%; TcHisRS: 4.478%; MtTrpRS: -1.766%; ClpP1P2: -4.734%.
With Cc1nc(C)n(CC2CCCN2CCOc2ccccc2F)n1 (stereo not shown) the screen gave Pks13 thioesterase: -13.4%; TcHisRS: 5.714%; MtTrpRS: -4.47%; ClpP1P2: -15.5%.
With O=C1CC[C@@H]2[C@@H](CCN2Cc2ccccn2)N1CC1CC1 the screen gave Pks13 thioesterase: -25.14%; TcHisRS: 10.68%; MtTrpRS: -3.488%; ClpP1P2: -5.584%.
With CCOCCn1nc(C)cc1C(=O)N1CCN(C(C)C)C(CC)C1 (stereo not shown) the screen gave Pks13 thioesterase: -7.436%; TcHisRS: 2.5%; MtTrpRS: -2.245%; ClpP1P2: -10.32%.
With COCCCN1C(=O)CC(N2CCN(c3ccc(F)cc3)CC2)C1=O (stereo not shown) the screen gave Pks13 thioesterase: 3.025%; TcHisRS: -3.727%; MtTrpRS: -0.2712%; ClpP1P2: 9.713%.
With Cc1cn2c(n1)CCC(NC(=O)CCCn1cncn1)C2 (stereo not shown) the screen gave Pks13 thioesterase: -0.528%; TcHisRS: 4.046%; MtTrpRS: 9.611%; ClpP1P2: -22.84%.
With Cn1c(=O)n(C)c2cc(NS(=O)(=O)Cc3cccc(F)c3)ccc21 the screen gave Pks13 thioesterase: -32.86%; TcHisRS: 3.867%; MtTrpRS: -2.374%; ClpP1P2: 5.235%.
With CC(C)(C)c1nccc(C2(c3ccccc3Cl)CCNCC2)n1 the screen gave Pks13 thioesterase: -7.143%; TcHisRS: 9.417%; MtTrpRS: -4.713%; ClpP1P2: 1.188%.

Some entries from above, unchanged:

With Cc1nc(C)n(CC2CCCN2CCOc2ccccc2F)n1 (stereo not shown) the screen gave Pks13 thioesterase: -13.4%; TcHisRS: 5.714%; MtTrpRS: -4.47%; ClpP1P2: -15.5%.
With O=C1CC[C@@H]2[C@@H](CCN2Cc2ccccn2)N1CC1CC1 the screen gave Pks13 thioesterase: -25.14%; TcHisRS: 10.68%; MtTrpRS: -3.488%; ClpP1P2: -5.584%.